# Test results taken from the supplement of paper PMC10338343.
# ± gives the standard deviation. The list shows a part of the results, in another mix than the full data. Many of these values have a large error. This is one part of the list.
# How the values were obtained:
# [1] = test system: MILI (PIWIL2) piRISC loaded with L1MC piRNA (26 nt); assay: pre-steady-state target cleavage rate (min^-1); higher = faster piRNA-guided slicing of the target; conditions: guide: L1MC piRNA 5'p-UAACUAAAUACUAUGCAAGCUGUAGG
# Summary of the method: (§1)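 Active affinity-purified piRISC (1 nM) loaded with one synthetic guide was mixed with a transcribed, DNA-blocked target RNA library (0.1 nM), with or without 500 nM GTSF1 partner protein, in HEPES–potassium acetate buffer at 33 °C for 0–8 or 0–960 min. Uncleaved targets were sequenced, normalised to depth and to weakly complementary targets, and pooled across three trials, with k3 capped at 0.0001 min^-1. The pre-steady-state cleavage rate was determined with a burst-and-steady-state fit.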
# [2] = test system: MIWI (PIWIL1) piRISC loaded with L1MC piRNA (30 nt); assay: as above; conditions: guide: L1MC piRNA 5'p-UAACUAAAUACUAUGCAAGCUGUAGGUCCU
# Summary of the method: as §1
# [3] = test system: EfPiwi piRISC loaded with L1MC piRNA (26 nt); assay: pre-steady-state target cleavage rate (min^-1); guide: L1MC piRNA 5'p-UAACUAAAUACUAUGCAAGCUGUAGG; MIWI and MILI are mouse PIWI proteins and EfPiwi is from a freshwater sponge; tags in brackets are library labels; higher = faster piRNA-guided slicing of the target; conditions: auxiliary factor: 500 nM Ephydatia muelleri Gtsf1
# Summary of the method: as §1
# [4] = auxiliary factor: 500 nM mouse GTSF1
# [5] = auxiliary factor: none (no GTSF1)
sequence,measurement,setting,value
UCCUGGAUGUGCUUGCAUAGCUAUUUAGUUA,pre-steady-state target cleavage rate,[1]; [4],0.00148 ± 0.0084
same,pre-steady-state target cleavage rate,[1]; [5],0.00119 ± 0.0068
same,pre-steady-state target cleavage rate,[2]; [4],0.00253 ± 0.0058
same,pre-steady-state target cleavage rate,[2]; [5],0.00165 ± 0.0067
same,pre-steady-state target cleavage rate,[3],0.000434 ± 0.0068
UCCUGCUACGCUUGCAUAGUAUUUAGUUA,pre-steady-state target cleavage rate,[1]; [4],0.291 ± 0.025
same,pre-steady-state target cleavage rate,[1]; [5],0.0067 ± 0.0024
same,pre-steady-state target cleavage rate,[2]; [4],1.12 ± 0.08
same,pre-steady-state target cleavage rate,[2]; [5],0.0532 ± 0.011
same,pre-steady-state target cleavage rate,[3],0.0122 ± 0.0033
UCCUGGAUGUGCUUGCAUAGUAUUUUGAAA,pre-steady-state target cleavage rate,[1]; [4],0.00858 ± 0.0064
same,pre-steady-state target cleavage rate,[1]; [5],0.000895 ± 0.0066
same,pre-steady-state target cleavage rate,[2]; [4],0.0177 ± 0.0092
same,pre-steady-state target cleavage rate,[2]; [5],0.00406 ± 0.0024
same,pre-steady-state target cleavage rate,[3],0.00065 ± 0.0094
UCCUGGAUGUCGAAGCAUAGUAUUUAGUAUA,pre-steady-state target cleavage rate,[1]; [4],0.0394 ± 0.0091
same,pre-steady-state target cleavage rate,[1]; [5],0.00232 ± 0.003
same,pre-steady-state target cleavage rate,[2]; [4],0.00163 ± 0.0077
same,pre-steady-state target cleavage rate,[2]; [5],0.00127 ± 0.0064
same,pre-steady-state target cleavage rate,[3],0.000151 ± 0.028
UCCUGGAUGUCGUUCCAUAGUAUUAAGUUA,pre-steady-state target cleavage rate,[1]; [4],0.00181 ± 0.0072
same,pre-steady-state target cleavage rate,[1]; [5],0.00023 ± 0.021
same,pre-steady-state target cleavage rate,[2]; [4],0.0049 ± 0.0055
same,pre-steady-state target cleavage rate,[2]; [5],0.000163 ± 0.018
same,pre-steady-state target cleavage rate,[3],0.000186 ± 0.02
UCCUGGAUCAGCUUGCAUACGUAUUUAGUUA,pre-steady-state target cleavage rate,[1]; [4],0.00192 ± 0.0063
same,pre-steady-state target cleavage rate,[1]; [5],0.000907 ± 0.0077
same,pre-steady-state target cleavage rate,[2]; [4],0.00166 ± 0.0069
same,pre-steady-state target cleavage rate,[2]; [5],0.00028 ± 0.016
same,pre-steady-state target cleavage rate,[3],0.00296 ± 0.0039
UCCUGGAUGUCGAAGCUUAGUAUUUAGUUA,pre-steady-state target cleavage rate,[1]; [4],0.00685 ± 0.0029
same,pre-steady-state target cleavage rate,[1]; [5],0.0015 ± 0.0041
same,pre-steady-state target cleavage rate,[2]; [4],0.000504 ± 0.014
same,pre-steady-state target cleavage rate,[2]; [5],0.000744 ± 0.01
same,pre-steady-state target cleavage rate,[3],0.00107 ± 0.0037
UCCUGGAUGUCGUAGCAAAGUAUUUAGUUA,pre-steady-state target cleavage rate,[1]; [4],0.00343 ± 0.0037
same,pre-steady-state target cleavage rate,[1]; [5],0.00108 ± 0.0051
same,pre-steady-state target cleavage rate,[2]; [4],0.00117 ± 0.0073
same,pre-steady-state target cleavage rate,[2]; [5],0.00109 ± 0.0062
same,pre-steady-state target cleavage rate,[3],0.00129 ± 0.008
UCCUGGAUGUCCUUGCAUUGUAUUAAGUUA,pre-steady-state target cleavage rate,[1]; [4],0.0479 ± 0.012
same,pre-steady-state target cleavage rate,[1]; [5],0.00424 ± 0.0019
same,pre-steady-state target cleavage rate,[2]; [4],0.00204 ± 0.0062
same,pre-steady-state target cleavage rate,[2]; [5],0.00118 ± 0.0057
same,pre-steady-state target cleavage rate,[3],0.00113 ± 0.0063

# Given as tab-separated lines: entries from further up.
sequence	measurement	setting	value
UCCUGGAUCAGCUUGCAUACGUAUUUAGUUA	pre-steady-state target cleavage rate	[2]; [5]	0.00028 ± 0.016
same	pre-steady-state target cleavage rate	[3]	0.00296 ± 0.0039
